No constants are given. Whether binding was seen depends on the method and setting. In cells and extracts the contact can be indirect. A yes stands for co-enrichment or nearness to the bait. Other partners may have been found. Sequences can lack the tags named with a protein. Blank lines part the entries; values can stand above or below the molecule they belong to.
Target: T1, FpA-tagged ctNup53 (construct P_ACTIN-FpA-NUP53-TGPD) (Chaetomium thermophilum) (UniProt G0S156)
T1 sequence: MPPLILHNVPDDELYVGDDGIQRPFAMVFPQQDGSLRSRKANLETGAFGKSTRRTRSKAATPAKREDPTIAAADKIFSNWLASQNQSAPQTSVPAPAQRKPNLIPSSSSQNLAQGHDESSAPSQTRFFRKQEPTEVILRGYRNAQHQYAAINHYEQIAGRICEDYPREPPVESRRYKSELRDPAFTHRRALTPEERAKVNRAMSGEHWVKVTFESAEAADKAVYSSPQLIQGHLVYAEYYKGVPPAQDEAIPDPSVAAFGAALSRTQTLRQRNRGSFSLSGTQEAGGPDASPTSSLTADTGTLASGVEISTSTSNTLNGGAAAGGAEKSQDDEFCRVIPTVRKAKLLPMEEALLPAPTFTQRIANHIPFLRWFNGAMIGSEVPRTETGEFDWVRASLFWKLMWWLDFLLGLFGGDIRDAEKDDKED
Test: affinity purification with mass spectrometry; magnetic-bead affinity capture of FpA-tagged bait from cryo-milled C. thermophilum mycelium in 24-well format under various extraction conditions (Supplementary Table 1); for ctNup53 proteins identified from condition #9; SDS-PAGE, Coomassie

The chains behind the UniProt entries cited, without tags or fusion partners.
UniProt G0SFH5: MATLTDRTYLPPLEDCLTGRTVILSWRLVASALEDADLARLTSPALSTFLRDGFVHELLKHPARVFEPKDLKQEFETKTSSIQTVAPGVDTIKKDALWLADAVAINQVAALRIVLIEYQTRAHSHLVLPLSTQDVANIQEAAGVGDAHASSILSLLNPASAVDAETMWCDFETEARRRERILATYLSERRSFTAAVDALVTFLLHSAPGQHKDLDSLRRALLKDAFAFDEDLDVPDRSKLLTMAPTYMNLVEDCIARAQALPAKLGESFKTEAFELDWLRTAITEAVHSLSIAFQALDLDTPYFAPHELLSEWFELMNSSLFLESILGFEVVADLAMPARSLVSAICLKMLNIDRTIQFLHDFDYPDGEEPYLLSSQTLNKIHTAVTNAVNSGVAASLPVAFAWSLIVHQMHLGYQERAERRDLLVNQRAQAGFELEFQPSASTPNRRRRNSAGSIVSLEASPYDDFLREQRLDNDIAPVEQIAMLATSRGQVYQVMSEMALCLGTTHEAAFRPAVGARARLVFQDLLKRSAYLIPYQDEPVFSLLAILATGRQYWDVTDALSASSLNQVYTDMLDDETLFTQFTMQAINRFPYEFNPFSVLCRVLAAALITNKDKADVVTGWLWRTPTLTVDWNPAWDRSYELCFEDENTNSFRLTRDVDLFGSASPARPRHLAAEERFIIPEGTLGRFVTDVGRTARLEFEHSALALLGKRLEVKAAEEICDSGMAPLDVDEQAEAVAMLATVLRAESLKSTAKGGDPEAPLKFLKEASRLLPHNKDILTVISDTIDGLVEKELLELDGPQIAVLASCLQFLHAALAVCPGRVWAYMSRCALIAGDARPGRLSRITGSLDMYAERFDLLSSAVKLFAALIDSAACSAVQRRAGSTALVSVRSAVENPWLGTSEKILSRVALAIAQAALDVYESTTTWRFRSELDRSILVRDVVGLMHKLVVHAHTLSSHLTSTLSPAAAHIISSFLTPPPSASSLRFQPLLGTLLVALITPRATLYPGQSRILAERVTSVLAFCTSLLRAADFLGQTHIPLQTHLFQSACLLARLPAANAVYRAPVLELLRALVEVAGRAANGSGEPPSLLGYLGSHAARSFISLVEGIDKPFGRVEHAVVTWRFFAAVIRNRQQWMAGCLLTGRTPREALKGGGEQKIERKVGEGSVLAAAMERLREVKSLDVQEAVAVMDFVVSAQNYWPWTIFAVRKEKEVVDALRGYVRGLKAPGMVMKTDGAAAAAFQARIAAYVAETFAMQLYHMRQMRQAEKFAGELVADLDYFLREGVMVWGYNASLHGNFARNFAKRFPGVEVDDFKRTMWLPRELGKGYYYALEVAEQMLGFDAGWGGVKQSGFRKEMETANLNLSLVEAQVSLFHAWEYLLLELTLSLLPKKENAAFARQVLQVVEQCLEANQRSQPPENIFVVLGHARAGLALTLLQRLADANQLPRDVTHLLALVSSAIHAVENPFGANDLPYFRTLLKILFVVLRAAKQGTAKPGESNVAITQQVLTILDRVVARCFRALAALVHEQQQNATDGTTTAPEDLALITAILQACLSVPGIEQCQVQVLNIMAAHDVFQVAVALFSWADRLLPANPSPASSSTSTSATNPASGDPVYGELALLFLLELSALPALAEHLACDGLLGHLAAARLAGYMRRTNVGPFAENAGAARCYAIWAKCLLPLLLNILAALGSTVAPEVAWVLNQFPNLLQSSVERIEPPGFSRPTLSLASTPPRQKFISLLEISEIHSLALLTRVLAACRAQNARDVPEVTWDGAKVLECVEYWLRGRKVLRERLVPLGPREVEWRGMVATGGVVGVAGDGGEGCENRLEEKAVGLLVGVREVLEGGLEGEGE

binding: binds
Molecule: ctNup188 (from UniProt G0SFH5 1-1858)

binding: binds
Molecule: ctNup145N

binding: binds
B1: ctNup159 (protein, UniProt G0SBS8 1-1481)
chain: MAFSFGNAGGGGGGVTQGKDLEVIQTEGLGFLALAGDAKVQLTSKWSPPPAPTASLLSIASRKGLVAAAGPDAVHVATTESVRKAFLAEKNGDSEVRPFNPEAKLPLPLRISQLAFTADEQYLVLSAETGGGLRAYDVNSLTQGNTQSAFELATNGETLRQLAPNPMPESAAFCAIVTTNGNLYMANLAERTLVSGPNGPTLRSQVSCAAWSTKGKQLVAGMADGSIYQMTPDGTEKAHIPKPPNLGDYHVSSVVWLENNVFLTIHNPTNSTNPDDKTVYHVITRQQSSGSPPNFTFQKLNDPVEPFVADKTPHHTVLRLKDFPPNLQDLLLVSSTAVETIGLLTRSKTPLATDKPADAITNVFTTTELADDSRRAQLPMSEDMMETYPIGVALDLSSKEKVYKPIPTDEEIEYSPGPLPGLWVLNNEGVLASWWVVYNESIRAGTTYSGIGGSSEVIPASPAPALASSTAPVPAFASPVSKPTFGSPSPATPAFGGPSALGTKASPWATAGGAASSTPTFGQPSFGKPAAPAFGQASFPGLGQKVSPWATGSTTSAAPAFGQSGFASAGTAPGKVFGSSFTAPSSGGFASFATKSGFASLSAPSGGSSIFSSKPGAPLTSAAPEVSMDTDTAFPPPSTKTDKPAFGSSPFVLGSTFKADPTAAHDIEKPKEGESKSLFDTGFGLSLEDAAKQPASAAESKDEEMRSTTPPLPPPTETKPKSIFESTTPTTTPAPQKFEFKTTTPSGFSTLLGSTKPVASSMPNIFATPKPTSAEKPKSIFDTLKPKEESKENLLKASEPPLPPDTTSKAVFQPGSSSSESAESSPGAAAKAAFKVGNDETPKPQKELAPKPEAVPLPPDFVKAKPKTEAKETKAEEPAVSPNLPVKPLAKKAEPIPAVPESASEEEQGQAEEEEAESGEEEEEEEEEGEGEEEEEEEEEEEEEEEEGEEGEEQSEAGSEGSGVDVAKDLSPTAKFGSMTPGYTPHTSLGGMAESTFSTISRSEVAEQSRPLFGEITKNAPPLFPAAGPLPVSPRSPSPVRGVVRSSILRPTETPRPVDTTPVPSRKGLLQKTASFGMSTGQKPAVDPNVKAQRKLAEKLKAEEQVLVDPEDEGIQQILQSKVEPTLRMNEFLAVDTKLAPMKPGRDDVPNACETLWRDINRMIDRLGLNSRSLQSFILGHTSHGKPGGRQKDDLEKPDDWVLIEAYDLGDMIDNKLARELEAGRIKDVEGTMAAIHNLGRDLAKLRAKEEDLRKLFNAQVDPDQIALTKALPLSAEQLAQQNELRRSYASFSKLLTEAEEALTVLKAKLASANAARGRRGAGAAQVPTVDAIIRTINKMTSMAEKRSGDIDVLESQMRKLRIGSLGPAGTPNGNGVGAGTVVPATPGGGGRSRESSPFVTPQSSRRAMFMSPGSVGTATPRGLLAATGTPSPTKKKLSMYTAEEKRELRAREAKRKATLRMLRESLARVGPNVVRLRDDD

binding: binds
B2: ctNup82 (endogenous) (protein, UniProt G0S4F3 1-882)
chain: MPKIKSFAPAWLNEPAPGHKLFAPAADDGTATVPLAYGKKIKPGPRRTIARRGTEIFVACGKQIRWGDLAQLKESWESRPSRSSVGPTSTKKDSSDFDDGAATAGYRIIKTPVADDIRQLVMSPNQDFLAVLTSHTVHICILPDSSHLHIQDTTPFKPKFWTLGPTTHVTSRSAVVSAVWHPLGVNGHALVTVTEDAIVRVWELSTADRWTFDAPTLAIDLKKLADATYLDQDFGVSTSATNKGFSPDAFDMEVAAACFPTRDSGGWAPMTLWLAMTSGDVYALCPLLPQRWTPPPTLIPSLSASIVAKVAAAEDNPESTPEERLVAQQQLEWMSEIDNQEPKLVEEATGEATIEVYTRPSRPGLVPKLQGPFDFDLNPEDEQDDEVELKDIYVIGEKPRVADLMRGEEEELEMMKEDQHNGLSLNIICLLSTSGQVKICLDIDGVEAQWLPPRSKNKRLFAPPPEPPSLLTFQTFDTLKPAEVTPDGWPMFSEDATSPYSFYVTHPAGITYISLTPWVFRLESELQSDSEAGTEFRIDLLAKGQGSERDRIFTQTRTQSPLAAATSIDDPDLGYFILSATQTDPIALFFETPERPVVPKETSVVIPEHVEERPPSPYWEPRPLFHPAEALDKPSAVPAWIDNLRTGRRRPLLTQELRLSMATLEVFHDGHKVVSTEVSDINDAVAELFRKCEALQGELRDQIKKVNEVKNRIHTITGDDLSDDPPVSEDQLIKQRIRVARERQEELANRMERLRKKFGRTTTRELSDKEKAWIEEVQNMATSILGPEAGQGALATTPNLAKQPWKRLEEIKTLRNALMAEAEQLQKVGDDTEESTPASQMPSLKIPSEIRKAKMAQVMSLLERESALVDAVKARIERLSIG

binding: binds
B5: ctNup170 (protein, UniProt G0S7B6 1-1416)
chain: MEPMTPMRPIPGAYVNTPAPPTANPARRRLFTEASSSGAAATTQLGAAPAPLASTMAPGPEINSGLMTPQAREDLPPVAKAAQVVNQTLQLDDSYPDLDSYCRPGASSDYEMQSSDSSWAPFHVVRHHNIPDKVFEHLNAGEVFTKLGLFAEIGYAWASIDSSLFLWDYTHPNPELIGYEEATHTITAVALVPPKPGVFVKTITHVLVVATTSEIILLGVSATPTPSGSKSLTLYSTRMSVHRGGSDVSFIVGTKDGRIFLGGESDTDIHEIFYQQEERWFSSRCGKINHSHPGWSAVVPSLAGLPFGSRQQEWLRGLYVDDTRNLLYSLSNRSTIRTYHMEGPEKLTKVIEKDKTSCLRDFAHMADSSPLFTDKTNIVALSPIPATEASKLHLMALTDTGCRLFLSATSSASYTMGGATSLAPQSMQLQFVKFPPRESPTRIRTLNGQIIDSQLDKTSRALDPSALGFRFSPGYFFDVVRKHPNQDMLFVSAPDTGRIKVTQPASALKYFEQGTWIELENGNRTIEIGLTTAPFAAAKQPLGFGNELAVQFDQVPGEFAVLTNTGVHIVRRRRLVDIFAKALGNCVSASDDALEREVRKFINQYGRVETIAAALAVACGQGSDLRTGTGRGMDRNTENLARAAFIEYGGQPRLAESDGKQSVSESVRLSSRHDALALYLTRLVRTLWKAKVVQVGSGSDISSTIPTSKLVTIQENVERLRNFLEANKSTIQGLAPPSERLFGRQEDIANQKEHQALHALQKLMESISEGISFVLMLFDERVSDIYARLDAVSQQQLKDLTYEQLFSQTPGKELAKVLVKAIVNRNIASGANVETVADALRRRCGSFCSPDDVVTFKAQEQLQRASEQAHNSPVLRALLAESLRLFEQVAGSLTPANLTTAVEQYISLKYYAGAIQLCLTVAQQKDRGNTALSWVNDGKPANDSRKKAFDERKICYNLIHQVLDKLESDFAGEPELVDGRPTLAATKRMEAYNVVNDSSDEVFHFDLYEWYIEKGWTDRILSIDSPHVITYLQRLAETDFRHAELLCRFYTTRSRFFEAAQVQTNLAKSDLNISLKDRIILLSRAKGNASVNTIGISRQQQQQLNHEASELLEIAHIQDDLLERLVADPRIPEERKAEIEEFLDGPIRTLTDLFNDYADQANYYDLCLLIFHAADFHNPRTILDTWNNLINQSHFEAEQRREYWEIVQAGGDLPAGVIAPIAEPPLPYVYVSQQIQLIAHRTSLDSLIFPVNSLLPVVCAYAINNGQDASIGADPCWPIQLFLNLGVPHALVVQVLENVLDTQEAPFTGRRRKLVVQWIAMAVDMWVREVERRGAMAAAAASGASGSEAVMGSWVSELLGRADQVLTQIAGTGATLRGGAASDAEEIASLRRTVKGLKRSVDMLLGGEMARMSFFR

The remaining lines, values behind:

B3: ctNup49 (protein, UniProt G0S4X2 1-470)
chain: MSLFGTNTTSQTPAGGGLFGTTTSQSAQTGSLFGTATSQPQQTGGLFGSTATQTPSSQLQSTGLFGSTTATSQPQQTGGLFGSTTTTTSQPQQTGGLFGATATSQPQSTGGLFGNTTTTSQPAQTVGLFGTTTQPQPAQSGGLFGSATQQKPATGGLFGSTTTNTGAGLFGNTSNTIGGGGLFGQTAKPATGGLFGQSTTQPQQQQNATPGLTMGQSTNTQQQVVPGVRIDLSNIKSTTRFNDLTEALQQEIAKIDEEIQKCIRDKEAVDAFLPAHGEQLAAIPTDVNFVTRKSEGAHNALSSDILAIDQLRELVKQDADNARLSFKAIDNLKLPMQYHQAGLWSKQMGGAGTAGASGASADADGQSNADLISYFSKTADEMEEMMKKFEKTITEIEAHLTGVEAHAMAMQNVAAQSRNAAQGGVDERVYELAAVLREFEESILKVAGVVGGVKEGVTELQLRDFMGHGS
binding: binds

B4: ctGle2 (protein, UniProt G0SEA3 1-357)
chain: MAGLFGTTTSTTTSTLGDLKNDVELGSPPEDSITDLSFNPNPNDPKDFLAVSSWDKKVRVYEIAANGQNQGKVQMEHEGPVFAVDFFKDGTKVISAGADKQAKVLDLASGQAMQVAAHDAPIRCVKYFEAGGTPMAVTGSWDKTIKYWDFRSATPAGTVQCQERVYTMDVKENLLVIGTADRYIDVINLKEPVKFYKTLQSPLKWQTRVVSCFTDSQGFAIGSIEGRCAIQYVEDKDQSMNFSFKCHRDTPQNNVTNVHAVNAISFHPQHGTFSTAGSDGTFHFWDKDAKHRLKGYPNVGGSITATKFNRNGTIFAYAISYDWSKGYQGNTANYPTKVMLHPVLGDECKPRPSVKKR
binding: binds

B6: ctNsp1 (protein, UniProt G0SBQ3 1-678)
chain: MSFTFGQPSTSGASGQSNTSTAPASGGLFGSTTGSSTPAFSFGNTSGTQSGSLFGGATTGQKTSLFGNTSSTTPAGTPATSLFGQSTSSSSGPSLFGNASKPSGNLFGNTSTSAAGSSTPAGTPSLFGSKTATTSAGASSTTPAATAGSGSLFGSTTATTQGSSTPTSTGLFGGSSTASKSLFGSTTTPATGTSGSQTTPAKPLFGSFGSTTPAGAPPTDATKTAGLFGNLSKPATTGTSTPTLFGSTSATTQGQSSTPLFGAKPAETSTTTAASGAATPATSAPASTTPTLFGGATLTSSAPAASTSTSTATASTPAATKPLFGATATTSAPGSSTTTATPGLFSTTPATTAAAGSSTATSTLFGTKPATTTAAAASSTPAATSTPSLFGSKPASTTAPASGTPTTTTAPASTSAPATTTAAPTSGASATASTTTAGQDAKTTTAGLGASTVGPQSQLPRLKNKTMDEIITRWATDLAKYQKEFKEQAAKVMEWDRLLVENGEKIQKLYTSTYEAERASNEIERQLSNVESQQEELTAWLDRYERELDELYAKQMGSAAGEQAAGPDQERERTYKLAEKLTDQLDEMGKDLAKMIKEINDMSNTLSKGSKPDDPLTQIVRVLNGHLAQLQWIDTNAAALQAKVAAAQKAAGSMGANVPGTETDAAESFYRSYRGGLK
modifications: O-GlcNAc modification suggested by Western blot; sites not stated
binding: binds

B7: ctNup57 (protein, UniProt G0S0R2 1-326)
chain: MFSSLNTRPAGQSLFGANTGGGLFGQSLANQPQQQQQPLQQQQQQAAPALGQSQINQNQQLGGSLWQPGSLTAYQKPIPEQIKLIVDKWNPNHPNCAFKTYLYNKVDEHTVPLYGPGPNEDPKEWEEALQRKPAPNFIPVLCSGFPSIVARLMLQRRVITEFNNKLHQINASLDAILSRHDLDHTVRAFNARRRHAELSRRCLHLAARVQVLRNRGYALSGDEDELKQKLQQIDKTLNDPAQGSRLEELWSRLIVLRGYAEDLKDQINQAGITESDGLGEEIEAKAKKILEDYDKQLQHLKKQVEEAKKDFEEWEKQHNPAPAPAR
binding: binds

From paper PMC4750058
